{"source": "PubChem BioAssay AID504786 (Drosophila RNAi Screening Center, 2011)", "assay": "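Knock-downs reducing HIF reporter induction by the iron chelator DFO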 (primary screen)", "cell system": "Drosophila S2 cells with a stable HIF luciferase reporter", "reagents": "long dsRNA against Drosophila genes, about 0.2 µg dsRNA per well of a 384-well plate", "duration": "three days of knock-down, then 20 h of DFO before reading", "treatment": "desferrioxamine (DFO) at 100 µM, an iron chelator that mimics hypoxia, for 20 h", "read-out": "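HIF reporter luminescence in cells given 100 µM DFO for 20 h, using the mouse ldh-a hypoxia-response element, scored as per-plate z-scores; higher means greater loss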", "scale": "z-score: higher = stronger loss of HIF reporter signal", "note": "The screen tested about 21,000 reagents; below is a random part of those with a known target gene and a result. 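Primary screen; positive scores mean lost reporter signal, so the sign may be inverted from the usual convention.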 The numbers tell different reagents against one gene apart. A plus sign joins genes that one reagent is predicted to hit. Not all columns of the deposit are shown."}
{"Target gene": "parvin (GeneID 32990)", "dsRNA no.": 1, "z-score, replicate 1": 0.3}
{"Target gene": "mRpL46 (GeneID 38230)", "dsRNA no.": 1, "z-score, replicate 1": 0.5}
{"Target gene": "Plc21C (GeneID 33204)", "dsRNA no.": 1, "z-score, replicate 1": -0.3}
{"Target gene": "CecA2 (GeneID 43597)", "dsRNA no.": 1, "z-score, replicate 1": 0.2}
{"Target gene": "tow (GeneID 38755)", "dsRNA no.": 1, "z-score, replicate 1": 1.2}
{"Target gene": "alpha-Est7 (GeneID 40901)", "dsRNA no.": 1, "z-score, replicate 1": -0.7}
{"Target gene": "plx (GeneID 40704)", "dsRNA no.": 1, "z-score, replicate 1": -0.2}
{"Target gene": "plx (GeneID 40704)", "dsRNA no.": 2, "z-score, replicate 1": -0.3}
{"Target gene": "PCB (GeneID 36020)", "dsRNA no.": 1, "z-score, replicate 1": -0.4}
{"Target gene": "Phb1 (GeneID 49168)", "dsRNA no.": 1, "z-score, replicate 1": 0}
{"Target gene": "CG42394 + CG6567", "dsRNA no.": 1, "z-score, replicate 1": -0.2}
{"Target gene": "Pex11c (GeneID 42751)", "dsRNA no.": 1, "z-score, replicate 1": -0.4}
{"Target gene": "spn-E (GeneID 41919)", "dsRNA no.": 1, "z-score, replicate 1": -0.2}
{"Target gene": "CG14118 (GeneID 39465)", "dsRNA no.": 1, "z-score, replicate 1": -0.3}
{"Target gene": "CG9541 (GeneID 34220)", "dsRNA no.": 1, "z-score, replicate 1": -0.3}
{"Target gene": "Ir94f (GeneID 318632)", "dsRNA no.": 1, "z-score, replicate 1": -0.1}
{"Target gene": "mtd (GeneID 45467)", "dsRNA no.": 1, "z-score, replicate 1": -0.4}
{"Target gene": "mtd (GeneID 45467)", "dsRNA no.": 2, "z-score, replicate 1": -0.4}
{"Target gene": "mtd (GeneID 45467)", "dsRNA no.": 3, "z-score, replicate 1": -0.4}
{"Target gene": "CG8508 (GeneID 41620)", "dsRNA no.": 1, "z-score, replicate 1": -0.3}
{"Target gene": "CG32259 (GeneID 317942)", "dsRNA no.": 1, "z-score, replicate 1": -0.1}
{"Target gene": "apolpp (GeneID 43827)", "dsRNA no.": 1, "z-score, replicate 1": -0.3}
{"Target gene": "Sytbeta (GeneID 39630)", "dsRNA no.": 1, "z-score, replicate 1": -0.3}
{"Target gene": "Sytbeta (GeneID 39630)", "dsRNA no.": 2, "z-score, replicate 1": -0.3}
{"Target gene": "CG3803 (GeneID 37809)", "dsRNA no.": 1, "z-score, replicate 1": -0.2}
{"Target gene": "Sgs1 (GeneID 33701)", "dsRNA no.": 1, "z-score, replicate 1": -0.2}
{"Target gene": "Sgs1 (GeneID 33701)", "dsRNA no.": 2, "z-score, replicate 1": -0.5}
{"Target gene": "CG9837 (GeneID 41057)", "dsRNA no.": 1, "z-score, replicate 1": -0.3}
{"Target gene": "e(y)3 (GeneID 32965)", "dsRNA no.": 1, "z-score, replicate 1": 1.6}
{"Target gene": "MED27 (GeneID 40696)", "dsRNA no.": 1, "z-score, replicate 1": 0}
{"Target gene": "dsx-c73A (GeneID 39831)", "dsRNA no.": 1, "z-score, replicate 1": 0}
{"Target gene": "dsx-c73A (GeneID 39831)", "dsRNA no.": 2, "z-score, replicate 1": -0.2}
{"Target gene": "dsx-c73A (GeneID 39831)", "dsRNA no.": 3, "z-score, replicate 1": -0.2}
{"Target gene": "Ptip (GeneID 39552)", "dsRNA no.": 1, "z-score, replicate 1": -0.3}
{"Target gene": "Ptip (GeneID 39552)", "dsRNA no.": 2, "z-score, replicate 1": 1.2}
{"Target gene": "mab-21 (GeneID 44127)", "dsRNA no.": 1, "z-score, replicate 1": -0.2}
{"Target gene": "CG31269 (GeneID 318653)", "dsRNA no.": 1, "z-score, replicate 1": -0.4}
{"Target gene": "CG15431 (GeneID 33646)", "dsRNA no.": 1, "z-score, replicate 1": -0.1}
{"Target gene": "cdm (GeneID 42171)", "dsRNA no.": 1, "z-score, replicate 1": -0.1}
{"Target gene": "CR34254 (GeneID 5740610)", "dsRNA no.": 1, "z-score, replicate 1": 0.3}
{"Target gene": "CG5746 (GeneID 42903)", "dsRNA no.": 1, "z-score, replicate 1": 0.3}
{"Target gene": "Jon99Cii (GeneID 43544)", "dsRNA no.": 1, "z-score, replicate 1": -0.5}
{"Target gene": "CG6066 (GeneID 43267)", "dsRNA no.": 1, "z-score, replicate 1": -0.3}
{"Target gene": "ND-20L (GeneID 43477)", "dsRNA no.": 1, "z-score, replicate 1": -0.4}
{"Target gene": "Ugt302C1 (GeneID 53510)", "dsRNA no.": 1, "z-score, replicate 1": -0.4}
{"Target gene": "CG5282 (GeneID 40256)", "dsRNA no.": 1, "z-score, replicate 1": -0.3}
{"Target gene": "miple1 (GeneID 38047)", "dsRNA no.": 1, "z-score, replicate 1": -0.4}
{"Target gene": "brv1 (GeneID 40116)", "dsRNA no.": 1, "z-score, replicate 1": -0.2}
{"Target gene": "Stt3A (GeneID 33082)", "dsRNA no.": 1, "z-score, replicate 1": -0.3}
{"Target gene": "CkIIbeta (GeneID 32132)", "dsRNA no.": 1, "z-score, replicate 1": 0.8}
{"Target gene": "blw (GeneID 37617)", "dsRNA no.": 1, "z-score, replicate 1": 1}

Already shown: 7 of the entries above.
{"Target gene": "mtd (GeneID 45467)", "dsRNA no.": 2, "z-score, replicate 1": -0.4}
{"Target gene": "mtd (GeneID 45467)", "dsRNA no.": 3, "z-score, replicate 1": -0.4}
{"Target gene": "CG8508 (GeneID 41620)", "dsRNA no.": 1, "z-score, replicate 1": -0.3}
{"Target gene": "CG32259 (GeneID 317942)", "dsRNA no.": 1, "z-score, replicate 1": -0.1}
{"Target gene": "apolpp (GeneID 43827)", "dsRNA no.": 1, "z-score, replicate 1": -0.3}
{"Target gene": "Sytbeta (GeneID 39630)", "dsRNA no.": 1, "z-score, replicate 1": -0.3}
{"Target gene": "Sytbeta (GeneID 39630)", "dsRNA no.": 2, "z-score, replicate 1": -0.3}
